Screen size: about 330,000 compounds; about 7,700 (2.3%) were called active. The shares of active, inactive and inconclusive entries below differ from those in the screen. The call rests on the fitted dose curve; in most records, active means well fitted inhibition curve with a large enough effect; inconclusive means small, poorly fitted or top-dose-only effect, or effect the other way; inactive means flat fitted curve, though single readings scatter. A potency beside an inconclusive call is a rough fit, not a confirmed value.
Assay: qHTS screen for small molecules that inhibit ELG1-dependent DNA repair in human embryonic kidney (HEK293T) cells expressing luciferase-tagged ELG1; further: nearly all actives have a fitted effect of over 55% in size
Conditions: HEK293T ELG1-luciferase reporter, luminescence, 16 h, DNA damage induced by 5-fluorouridine; activity change, negative = inhibition: at 46.1 µM (top of the series)
Summary of the method: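 DMSO vehicle served as the neutral condition. Each well held 2,000 cells given 5-fluorouridine plus compound; after 16 hr at 37 °C/5% CO2, ONE-Glo was added and luciferase measured 30 min later.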
On the % scale 0 is the no-effect control and ±100 the full control effect; potency means the concentration at half of the fitted maximal effect.

SMILES	Potency	activity change, negative = inhibition
O=C(CC(Nc1ccc(F)cc1)C(=O)OCC(=O)c1cccs1)c1ccccc1 (stereo not drawn)	inconclusive: 16.4 µM [activator, partial curve]	
O=C(NCc1ccc2c(c1)OCO2)c1ccc2c(c1)OCCO2	inconclusive: 18.4 µM [activator, single point]	
CCn1cc(CN(C)S(=O)(=O)c2ccc3ccccc3c2)c(C)n1		inactive: -12.3%
COc1ccc(NC(=O)CSCC(=O)Nc2cccc3ncccc23)cc1	inconclusive: 25.9 µM [inhibitor, single point]	
COc1ccc(S(=O)(=O)N2CCOCC2)cc1NC(=O)Cc1ccc(Cl)c(Cl)c1	inconclusive: 32.6 µM [inhibitor, single point]	
COc1ccc(C2CC(c3cccc(C(F)(F)F)c3)=NN2c2ccc(S(N)(=O)=O)cc2)cc1 (stereo not drawn)		inactive: -3.33%
O=C(NCCc1ccccn1)c1cc(-c2ccc(Cl)cc2)nc2ccccc12	active: 23.1 µM	
Cc1cccc(N2CCN(CCCNC(=O)C3CCCN(c4ncnc5c4nc4n5CCCCC4)C3)CC2C)c1 (stereo not drawn)	active: 11.6 µM	
CC(C)Oc1ccc(CN2CCC(n3nccc3NC(=O)CCc3ccccc3)CC2)cc1	inconclusive: 32.6 µM [inhibitor, partial curve, poor fit]	
COc1cc(OC)c(-c2nnc3n(CCc4ccccc4)c(=O)c4ccccc4n23)cc1OC	inconclusive: 0.651 µM [inhibitor, full curve, poor fit]	
CN1CCN(C(=O)/C=C/c2c(F)cccc2Cl)CC1	inconclusive: 10.3 µM [activator, partial curve, poor fit]	
Cc1ccc(Cl)cc1NC(=O)C1CCCN(S(=O)(=O)c2c(C)noc2C)C1 (stereo not drawn)		inconclusive: 30.6% [activator]
CCC1CCCCN1CCCNC(=O)c1nn(C)c2c1CS(=O)(=O)c1ccccc1-2 (stereo not drawn)	inconclusive: 16.4 µM [activator, partial curve, poor fit]	
COc1ccc(C(CNC(=O)c2sccc2C)N2CCOCC2)cc1 (stereo not drawn)	inconclusive: 25.9 µM [activator, single point]	
CNC(=O)c1ccc(OCc2ccccc2)c(OC)c1	inconclusive: 20.6 µM [activator, single point]	
Cn1nc(C(F)(F)F)c2cc(C(=O)Nc3ccc(F)c(Cl)c3)sc21	inconclusive: 29.1 µM [inhibitor, single point]	
Cc1ccc(NC(=O)c2cnn(-c3ccccc3)c2C)c(C)c1	inconclusive: 10.3 µM [activator, partial curve]	
Fc1cccc(Cc2noc(CN3CCC(c4ccncc4)CC3)n2)c1		inactive: -11.7%

Some of the entries above, set out differently:
SMILES | Potency | activity change, negative = inhibition
CN1CCN(C(=O)/C=C/c2c(F)cccc2Cl)CC1 | inconclusive: 10.3 µM [activator, partial curve, poor fit] | 
Cc1ccc(Cl)cc1NC(=O)C1CCCN(S(=O)(=O)c2c(C)noc2C)C1 (stereo not drawn) |  | inconclusive: 30.6% [activator]
CCC1CCCCN1CCCNC(=O)c1nn(C)c2c1CS(=O)(=O)c1ccccc1-2 (stereo not drawn) | inconclusive: 16.4 µM [activator, partial curve, poor fit] | 
COc1ccc(C(CNC(=O)c2sccc2C)N2CCOCC2)cc1 (stereo not drawn) | inconclusive: 25.9 µM [activator, single point] | 
